What all share (experiment): split reporter; BiFC with YFP fragments 1-154 (pYFN43) and 154-240 (pYFC43); Agrobacterium co-infiltration with p19 into N. benthamiana leaves; epidermal cells viewed by confocal microscopy 3-4 days after infiltration
Assay [1] concerns the target spermidine synthase 1 (SPDS1), BiFC fusion in pYFN43 / pYFC43 (Arabidopsis thaliana) (UniProt Q9ZUB3).
The target in assay [2] is spermidine synthase 2 (SPDS2), BiFC fusion in pYFC43 (Arabidopsis thaliana) (UniProt O48661).
Assay [3] addresses spermine synthase (SPMS), BiFC fusion in pYFN43 / pYFC43 (Arabidopsis thaliana) (UniProt Q94BN2).

Amino acid sequences for entries named in this document (tags omitted).
UniProt Q9ZUB3: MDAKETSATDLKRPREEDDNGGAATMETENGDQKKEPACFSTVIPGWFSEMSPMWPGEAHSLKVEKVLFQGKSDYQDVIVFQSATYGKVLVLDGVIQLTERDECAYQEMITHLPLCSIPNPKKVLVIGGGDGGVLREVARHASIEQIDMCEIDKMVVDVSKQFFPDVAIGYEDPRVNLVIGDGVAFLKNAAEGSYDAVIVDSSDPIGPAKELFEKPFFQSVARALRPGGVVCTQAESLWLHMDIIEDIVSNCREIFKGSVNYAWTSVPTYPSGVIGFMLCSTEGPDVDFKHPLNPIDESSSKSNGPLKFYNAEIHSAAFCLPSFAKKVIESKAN
UniProt O48661: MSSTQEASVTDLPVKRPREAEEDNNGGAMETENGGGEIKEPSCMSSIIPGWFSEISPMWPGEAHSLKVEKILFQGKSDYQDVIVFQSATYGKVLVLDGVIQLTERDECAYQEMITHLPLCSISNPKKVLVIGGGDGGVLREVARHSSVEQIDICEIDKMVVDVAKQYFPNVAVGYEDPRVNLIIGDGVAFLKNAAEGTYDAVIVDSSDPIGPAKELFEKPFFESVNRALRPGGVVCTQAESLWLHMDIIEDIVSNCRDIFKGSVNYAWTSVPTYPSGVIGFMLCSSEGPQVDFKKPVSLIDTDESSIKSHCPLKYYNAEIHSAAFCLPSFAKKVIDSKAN
UniProt Q94BN2: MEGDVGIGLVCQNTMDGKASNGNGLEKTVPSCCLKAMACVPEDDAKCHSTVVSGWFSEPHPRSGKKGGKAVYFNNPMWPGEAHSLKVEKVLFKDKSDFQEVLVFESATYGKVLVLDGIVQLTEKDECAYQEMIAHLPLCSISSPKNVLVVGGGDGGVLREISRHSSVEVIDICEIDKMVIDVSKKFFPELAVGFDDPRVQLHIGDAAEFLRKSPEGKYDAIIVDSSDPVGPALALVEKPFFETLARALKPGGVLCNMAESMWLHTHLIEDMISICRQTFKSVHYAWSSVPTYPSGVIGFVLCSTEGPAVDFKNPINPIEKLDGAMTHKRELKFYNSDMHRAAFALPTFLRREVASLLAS

These are yes or no findings as the source states them, for the method shown. In cells and extracts the contact can be indirect. Some binding calls cover weakened binding; strength is not graded here.

“spermidine synthase 1 (SPDS1), BiFC fusion in pYFN43 / pYFC43 (from UniProt Q9ZUB3 1-334) (enzyme)”: the binding entry in assay [1], in assay [2] and in assay [3] was “binds” throughout. In the case of “spermidine synthase 2 (SPDS2), BiFC fusion in pYFC43 (from UniProt O48661 1-340) (enzyme)”, the binding entry in assay [3] was “binds”. For the substance “spermine synthase (SPMS), BiFC fusion in pYFN43 / pYFC43 (from UniProt Q94BN2 1-359) (enzyme)”, the binding result in assay [3] was “binds”.

The values are drawn from PMC3466176.
